Assay [1] concerns the target (His)Rpo3ΔD3 (Methanosarcina acetivorans) (UniProt P0CG28). Description: pull-down; gene replacement M. acetivorans strains (native rpo3 replaced); (His)Rpo3 variant held on Ni2+-agarose from lysate, anaerobic; eluates normalised to Rpo3; western blot for Rpo11, Rpo2′, Rpo1″.
Assay [2] addresses (His)Rpo3ΔFeS1 (Methanosarcina acetivorans) (UniProt P0CG28). Described as above.
The target of assay [3] is (His)Rpo3ΔD3 (Methanosarcina acetivorans) (UniProt P0CG28). The experiment in a line: pull-down; merodiploid M. acetivorans strains (native Rpo3 also present), tetracycline-induced; (His)Rpo3 variant held on Ni2+-agarose from lysate, anaerobic; eluates normalised to 15 ng (His)Rpo3; western blot for Rpo11, Rpo2′, Rpo1″.
Assay [4] has as its target (His)Rpo3ΔFeS1 (Methanosarcina acetivorans) (UniProt P0CG28). Description: condition: only in the merodiploid strain, in competition with native Rpo3; pull-down; merodiploid M. acetivorans strains (native Rpo3 also present), tetracycline-induced; (His)Rpo3 variant held on Ni2+-agarose from lysate, anaerobic; eluates normalised to 15 ng (His)Rpo3; western blot for Rpo11, Rpo2′, Rpo1″. A general note: A western blot detects proteins with antibodies after separation by electrophoresis.

Amino acid sequences for entries named in this document (tags omitted). A change or cut given only in a name is not applied to a line headed by its entry.
UniProt Q8TRB6: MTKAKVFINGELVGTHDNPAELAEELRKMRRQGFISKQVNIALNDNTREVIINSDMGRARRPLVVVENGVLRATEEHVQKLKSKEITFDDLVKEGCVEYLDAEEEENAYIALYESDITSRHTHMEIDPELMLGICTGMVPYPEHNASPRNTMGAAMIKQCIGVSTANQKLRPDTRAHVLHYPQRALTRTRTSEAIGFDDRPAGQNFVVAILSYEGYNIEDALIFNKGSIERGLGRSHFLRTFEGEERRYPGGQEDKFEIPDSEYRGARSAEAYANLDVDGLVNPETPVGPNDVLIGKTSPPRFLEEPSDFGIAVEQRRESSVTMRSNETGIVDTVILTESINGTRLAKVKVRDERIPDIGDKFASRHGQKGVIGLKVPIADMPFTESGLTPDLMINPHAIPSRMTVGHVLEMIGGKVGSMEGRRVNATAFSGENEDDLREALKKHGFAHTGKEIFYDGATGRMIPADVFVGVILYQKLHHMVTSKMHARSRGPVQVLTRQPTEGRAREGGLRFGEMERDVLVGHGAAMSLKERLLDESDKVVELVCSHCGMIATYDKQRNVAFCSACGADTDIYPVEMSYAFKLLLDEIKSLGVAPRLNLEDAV
UniProt Q8TSS4: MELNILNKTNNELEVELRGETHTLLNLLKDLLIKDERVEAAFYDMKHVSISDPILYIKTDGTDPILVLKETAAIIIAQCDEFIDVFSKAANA

Assay [5] deals with T1, (His)Rpo3, N-terminally histidine-tagged wild-type Rpo3 expressed in Methanosarcina acetivorans (Methanosarcina acetivorans) (UniProt P0CG28).
T1 sequence: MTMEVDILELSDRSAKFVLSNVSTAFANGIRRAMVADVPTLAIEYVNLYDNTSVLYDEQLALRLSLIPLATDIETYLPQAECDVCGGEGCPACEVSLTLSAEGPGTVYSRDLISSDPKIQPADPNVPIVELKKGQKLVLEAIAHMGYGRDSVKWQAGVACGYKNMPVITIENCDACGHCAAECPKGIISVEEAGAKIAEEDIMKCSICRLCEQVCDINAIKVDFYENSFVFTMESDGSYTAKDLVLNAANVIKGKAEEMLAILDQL
Description: pull-down; gene replacement M. acetivorans strains (native rpo3 replaced); (His)Rpo3 variant held on Ni2+-agarose from lysate, anaerobic; eluates normalised to Rpo3; western blot for Rpo11, Rpo2′, Rpo1″.

For assay [6], the target named is T2, (His)Rpo3mFeS2 (Methanosarcina acetivorans) (UniProt P0CG28).
T2 sequence: T1 sequence with C173S, C176S, C179S
Described as above.

In assay [7] the target is T1, (His)Rpo3, N-terminally histidine-tagged wild-type Rpo3 expressed in Methanosarcina acetivorans (Methanosarcina acetivorans). Description: pull-down; merodiploid M. acetivorans strains (native Rpo3 also present), tetracycline-induced; (His)Rpo3 variant held on Ni2+-agarose from lysate, anaerobic; eluates normalised to 15 ng (His)Rpo3; western blot for Rpo11, Rpo2′, Rpo1″.

Assay [8] concerns the target T3, (His)Rpo3mFeS1 (Methanosarcina acetivorans) (UniProt P0CG28).
T3 sequence: T1 sequence with C205S, C208S
Described as above.

In assay [9] the target is T2, (His)Rpo3mFeS2 (Methanosarcina acetivorans). The description is as above.
Assay [10] addresses (His)Rpo3ΔFeS1 (Methanosarcina acetivorans) (UniProt P0CG28). The assay is described as above.
Assay [11] deals with (His)Rpo3ΔFeS2 (Methanosarcina acetivorans) (UniProt P0CG28). The assay is described as above.
Assay [12] concerns the target Rpo11(His), histidine-tagged Rpo11 of Methanosarcina acetivorans RNA polymerase (Methanosarcina acetivorans). The experiment in a line: pull-down + SEC; Rpo3 variant coexpressed with Rpo11(His) in E. coli; Rpo11(His) purified anaerobically by Ni2+ affinity and size-exclusion chromatography. (In general: Size exclusion chromatography separates by hydrodynamic size, large species first.)

Numbering of substitutions follows the chain as printed. Results are given in words; binding and its absence hold for the method and conditions named. In cells and extracts the contact can be indirect. For some of these results: A result given as binding can be weak or reduced; the word gives no strength. For some of these results: Sequences can lack the tags named with a protein.

As for “Rpo2′ (RpoB′), catalytic subunit of Methanosarcina acetivorans RNA polymerase (from UniProt Q8TRB6 1-604)”, the binding result in assay [1] was “binds”; in assay [2], “binds”; in [3] it was “binds weakly”; in assay [4] it was “no binding”.
For the molecule “native Rpo11 of Methanosarcina acetivorans RNA polymerase (from UniProt Q8TSS4)”, the binding entry in [5], in assay [6], in assay [1], in assay [2], in [7] and in [8] was “binds” throughout. Further, the binding result in assay [9], in assay [3], in assay [10] and in [11] was “binds” in each case.

B1: Rpo3mFeS1 (recombinant, E. coli) (protein, UniProt P0CG28 1-266)
chain: T1 sequence with C205S, C208S
Regarding B1, in [12], the binding result was “binds”.

B2: Rpo3mFeS2 (recombinant, E. coli) (protein, UniProt P0CG28 1-266)
chain: T1 sequence with C173S, C176S, C179S
For the molecule B2, in [12], the binding result is “binds”.

Source of the values: article PMC5300874.
